The match of structure and compound is tentative.

Amino acid sequences for entries named in this document (tags omitted). Residues count along the entry.
UniProt P21802, 399-821 limits assumed: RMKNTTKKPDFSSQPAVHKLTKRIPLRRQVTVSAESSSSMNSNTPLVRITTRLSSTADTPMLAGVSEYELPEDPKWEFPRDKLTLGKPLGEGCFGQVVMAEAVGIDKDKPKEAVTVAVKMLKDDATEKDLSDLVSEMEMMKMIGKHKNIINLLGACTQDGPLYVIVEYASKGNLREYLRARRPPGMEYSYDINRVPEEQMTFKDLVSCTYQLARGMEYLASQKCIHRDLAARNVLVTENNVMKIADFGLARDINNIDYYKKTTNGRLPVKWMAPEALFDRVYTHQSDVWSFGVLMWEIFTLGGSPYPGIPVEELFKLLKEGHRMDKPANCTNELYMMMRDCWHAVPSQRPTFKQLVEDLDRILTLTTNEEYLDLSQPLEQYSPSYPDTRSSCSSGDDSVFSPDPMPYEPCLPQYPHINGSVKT

The results in this text go back to patent US20240270741A1 (Cogent Biosciences, Inc., priority 2023, published 2024).

The experiment has as its target FGFR2 (Homo sapiens, UniProt P21802). As to the kind of experiment: FGFR wild type enzyme assay (HTRF KinEASE-TK), FGFR2. The conditions noted are these: read-out: Enz FGFR2. On the technique in general: In TR-FRET formats the signal depends on donor and acceptor labels being close together.
For `COC(=O)N1CCC[C@H](n2cc(-c3cc(Sc4ccccc4C#N)c4c(C#N)cnn4c3)c(C)n2)C1`, the IC50 is 5 nM.

For the compound `CC(=O)N1CCC[C@H](n2cc(-c3cc(Sc4ccccc4C#N)c4c(C#N)cnn4c3)c(C)n2)C1`, the IC50 is 2.5 nM.

Turning to `COC(=O)N1CCC[C@H](n2cc(-c3cc(Sc4ccc(F)cc4C#N)c4c(C#N)cnn4c3)c(C)n2)C1`, the IC50 was determined as 11 nM.

With `Cc1nn([C@H]2CCCN(C(=O)CO)C2)cc1-c1cc(Sc2ccccc2C#N)c2c(C#N)cnn2c1`, the IC50 stood at 2.5 nM.
